Assay [1] addresses Flag-Vimentin (human) (UniProt P08670). The experiment in a line: co-IP; HEK293 cells cotransfected with Flag-Vimentin and Myc-HRD1 or Myc-HRD1(C291S), MG132 10 μM; whole-cell lysates immunoprecipitated with anti-Flag, immunoblot. Background: A western blot detects proteins with antibodies after separation by electrophoresis.
For assay [2], the target named is Myc-HRD1 (human) (UniProt Q86TM6). Briefly: co-IP; HEK293 cells cotransfected with Myc-HRD1 and Flag-Vimentin, MG132 10 μM; NP-40 whole-cell lysates immunoprecipitated with anti-Myc, immunoblot.

The chains behind the UniProt entries cited, without tags or fusion partners. Where a name states a change or a piece, a line headed by the entry shows the natural chain unless it says otherwise.
UniProt P08670: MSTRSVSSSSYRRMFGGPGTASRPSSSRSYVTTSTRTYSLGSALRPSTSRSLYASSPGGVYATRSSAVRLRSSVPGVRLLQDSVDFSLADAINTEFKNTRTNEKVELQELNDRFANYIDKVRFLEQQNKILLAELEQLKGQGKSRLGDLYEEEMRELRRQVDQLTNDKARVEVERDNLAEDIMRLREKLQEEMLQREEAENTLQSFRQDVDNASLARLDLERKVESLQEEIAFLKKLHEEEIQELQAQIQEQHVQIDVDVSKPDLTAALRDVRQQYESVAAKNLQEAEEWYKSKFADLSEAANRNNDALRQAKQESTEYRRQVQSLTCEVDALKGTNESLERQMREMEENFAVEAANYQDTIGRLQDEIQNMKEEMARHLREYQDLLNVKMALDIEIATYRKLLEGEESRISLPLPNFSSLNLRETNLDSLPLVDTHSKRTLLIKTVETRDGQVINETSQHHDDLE
UniProt Q86TM6: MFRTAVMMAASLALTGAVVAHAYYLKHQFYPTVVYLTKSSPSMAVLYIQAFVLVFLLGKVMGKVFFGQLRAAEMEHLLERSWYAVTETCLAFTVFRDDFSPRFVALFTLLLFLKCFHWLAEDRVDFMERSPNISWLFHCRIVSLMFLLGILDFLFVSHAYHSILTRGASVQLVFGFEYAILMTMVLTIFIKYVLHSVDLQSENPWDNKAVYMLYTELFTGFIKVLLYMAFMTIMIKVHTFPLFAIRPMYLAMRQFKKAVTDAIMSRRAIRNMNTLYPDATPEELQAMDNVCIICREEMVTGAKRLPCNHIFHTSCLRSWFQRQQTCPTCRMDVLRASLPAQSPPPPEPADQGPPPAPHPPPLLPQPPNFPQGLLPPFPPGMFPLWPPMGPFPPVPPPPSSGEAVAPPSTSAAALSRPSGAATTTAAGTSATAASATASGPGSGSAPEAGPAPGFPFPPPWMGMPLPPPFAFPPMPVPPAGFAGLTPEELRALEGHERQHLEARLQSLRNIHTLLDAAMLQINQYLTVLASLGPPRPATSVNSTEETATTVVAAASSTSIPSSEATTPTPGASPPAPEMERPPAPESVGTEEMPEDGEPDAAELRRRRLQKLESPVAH

No constants are given. Whether binding was seen depends on the method and setting. In cells and extracts the contact can be indirect. Some results given as binding are weak or reduced against the parent protein; the word gives no strength.

Results on three substances are retold here after paper PMC7851937.

Take “Myc-HRD1 (from UniProt Q86TM6 1-617) (enzyme)”: the binding result in assay [1] is on record as “binds”. For the substance “Flag-Vimentin (from UniProt P08670 1-466)”, in assay [2], the binding entry is reported as “binds”. Consider “Myc-HRD1(C291S) (from UniProt Q86TM6 1-617) (enzyme)”, for which the binding entry in assay [1] is recorded as “no binding”.
